Repeats are few or missing, and single values can be far off.
Compound: [O-][N+](C(C1=C(C(O)=C2)NC(C(C=C3)=CC=C3Cl)C4C1C=CC4)=C2Cl)=O
Experiment: melting temperature shift (compound 7 minus DMSO); higher = compound stabilises the protein
Conditions: 10 µM
Experimental: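 Thermal proteome profiling (TMT mass spectrometry) in intact DAOY medulloblastoma cells or DAOY lysates treated with 10 µM compound 7 or DMSO, heated at 10 temperatures from 40.5 to 73.8 °C for 3 min. Melting curves were fitted with the Bioconductor TPP package, and the melting point difference between compound and vehicle is reported per protein (single curve per condition).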

Sequences of proteins named here, by UniProt entry; tags and fusion partners are left off. A change or cut given only in a name is not applied to a line headed by its entry.
UniProt Q53H96: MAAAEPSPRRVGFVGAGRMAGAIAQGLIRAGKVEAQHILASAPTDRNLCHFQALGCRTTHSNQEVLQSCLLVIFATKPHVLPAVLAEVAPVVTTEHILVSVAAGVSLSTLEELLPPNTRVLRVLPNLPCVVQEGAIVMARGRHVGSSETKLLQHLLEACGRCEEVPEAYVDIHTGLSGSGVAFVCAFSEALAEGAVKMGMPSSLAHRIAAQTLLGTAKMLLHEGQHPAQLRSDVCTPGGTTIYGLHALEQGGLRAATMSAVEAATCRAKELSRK
UniProt Q32P51: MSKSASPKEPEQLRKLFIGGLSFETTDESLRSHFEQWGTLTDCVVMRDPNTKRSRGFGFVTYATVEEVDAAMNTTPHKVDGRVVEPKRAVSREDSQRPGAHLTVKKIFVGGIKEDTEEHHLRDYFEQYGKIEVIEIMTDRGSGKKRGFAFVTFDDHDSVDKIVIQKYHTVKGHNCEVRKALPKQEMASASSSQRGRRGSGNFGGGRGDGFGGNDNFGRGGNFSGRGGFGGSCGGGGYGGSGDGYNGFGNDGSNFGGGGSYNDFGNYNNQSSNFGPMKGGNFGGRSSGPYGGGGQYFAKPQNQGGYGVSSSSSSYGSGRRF
UniProt Q9UHG3: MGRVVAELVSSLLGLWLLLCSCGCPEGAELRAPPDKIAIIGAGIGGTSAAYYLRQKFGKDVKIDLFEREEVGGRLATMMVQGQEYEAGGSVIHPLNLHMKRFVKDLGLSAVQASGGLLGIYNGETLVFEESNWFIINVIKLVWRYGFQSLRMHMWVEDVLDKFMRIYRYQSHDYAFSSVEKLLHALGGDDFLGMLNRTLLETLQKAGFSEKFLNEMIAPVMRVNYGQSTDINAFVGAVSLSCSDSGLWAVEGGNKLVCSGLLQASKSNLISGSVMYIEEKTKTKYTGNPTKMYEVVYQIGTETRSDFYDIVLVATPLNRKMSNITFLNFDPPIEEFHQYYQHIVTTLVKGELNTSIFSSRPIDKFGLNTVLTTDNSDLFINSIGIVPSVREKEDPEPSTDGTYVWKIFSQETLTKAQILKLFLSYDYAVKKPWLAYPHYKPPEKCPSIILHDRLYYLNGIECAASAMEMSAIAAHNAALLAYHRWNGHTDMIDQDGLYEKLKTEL
UniProt P30405: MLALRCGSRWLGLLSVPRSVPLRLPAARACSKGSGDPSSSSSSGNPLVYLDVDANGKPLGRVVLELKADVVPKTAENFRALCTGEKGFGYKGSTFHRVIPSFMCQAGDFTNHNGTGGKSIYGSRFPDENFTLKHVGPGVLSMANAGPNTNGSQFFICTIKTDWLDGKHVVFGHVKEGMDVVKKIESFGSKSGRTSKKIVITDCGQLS
UniProt P35749, whole entry: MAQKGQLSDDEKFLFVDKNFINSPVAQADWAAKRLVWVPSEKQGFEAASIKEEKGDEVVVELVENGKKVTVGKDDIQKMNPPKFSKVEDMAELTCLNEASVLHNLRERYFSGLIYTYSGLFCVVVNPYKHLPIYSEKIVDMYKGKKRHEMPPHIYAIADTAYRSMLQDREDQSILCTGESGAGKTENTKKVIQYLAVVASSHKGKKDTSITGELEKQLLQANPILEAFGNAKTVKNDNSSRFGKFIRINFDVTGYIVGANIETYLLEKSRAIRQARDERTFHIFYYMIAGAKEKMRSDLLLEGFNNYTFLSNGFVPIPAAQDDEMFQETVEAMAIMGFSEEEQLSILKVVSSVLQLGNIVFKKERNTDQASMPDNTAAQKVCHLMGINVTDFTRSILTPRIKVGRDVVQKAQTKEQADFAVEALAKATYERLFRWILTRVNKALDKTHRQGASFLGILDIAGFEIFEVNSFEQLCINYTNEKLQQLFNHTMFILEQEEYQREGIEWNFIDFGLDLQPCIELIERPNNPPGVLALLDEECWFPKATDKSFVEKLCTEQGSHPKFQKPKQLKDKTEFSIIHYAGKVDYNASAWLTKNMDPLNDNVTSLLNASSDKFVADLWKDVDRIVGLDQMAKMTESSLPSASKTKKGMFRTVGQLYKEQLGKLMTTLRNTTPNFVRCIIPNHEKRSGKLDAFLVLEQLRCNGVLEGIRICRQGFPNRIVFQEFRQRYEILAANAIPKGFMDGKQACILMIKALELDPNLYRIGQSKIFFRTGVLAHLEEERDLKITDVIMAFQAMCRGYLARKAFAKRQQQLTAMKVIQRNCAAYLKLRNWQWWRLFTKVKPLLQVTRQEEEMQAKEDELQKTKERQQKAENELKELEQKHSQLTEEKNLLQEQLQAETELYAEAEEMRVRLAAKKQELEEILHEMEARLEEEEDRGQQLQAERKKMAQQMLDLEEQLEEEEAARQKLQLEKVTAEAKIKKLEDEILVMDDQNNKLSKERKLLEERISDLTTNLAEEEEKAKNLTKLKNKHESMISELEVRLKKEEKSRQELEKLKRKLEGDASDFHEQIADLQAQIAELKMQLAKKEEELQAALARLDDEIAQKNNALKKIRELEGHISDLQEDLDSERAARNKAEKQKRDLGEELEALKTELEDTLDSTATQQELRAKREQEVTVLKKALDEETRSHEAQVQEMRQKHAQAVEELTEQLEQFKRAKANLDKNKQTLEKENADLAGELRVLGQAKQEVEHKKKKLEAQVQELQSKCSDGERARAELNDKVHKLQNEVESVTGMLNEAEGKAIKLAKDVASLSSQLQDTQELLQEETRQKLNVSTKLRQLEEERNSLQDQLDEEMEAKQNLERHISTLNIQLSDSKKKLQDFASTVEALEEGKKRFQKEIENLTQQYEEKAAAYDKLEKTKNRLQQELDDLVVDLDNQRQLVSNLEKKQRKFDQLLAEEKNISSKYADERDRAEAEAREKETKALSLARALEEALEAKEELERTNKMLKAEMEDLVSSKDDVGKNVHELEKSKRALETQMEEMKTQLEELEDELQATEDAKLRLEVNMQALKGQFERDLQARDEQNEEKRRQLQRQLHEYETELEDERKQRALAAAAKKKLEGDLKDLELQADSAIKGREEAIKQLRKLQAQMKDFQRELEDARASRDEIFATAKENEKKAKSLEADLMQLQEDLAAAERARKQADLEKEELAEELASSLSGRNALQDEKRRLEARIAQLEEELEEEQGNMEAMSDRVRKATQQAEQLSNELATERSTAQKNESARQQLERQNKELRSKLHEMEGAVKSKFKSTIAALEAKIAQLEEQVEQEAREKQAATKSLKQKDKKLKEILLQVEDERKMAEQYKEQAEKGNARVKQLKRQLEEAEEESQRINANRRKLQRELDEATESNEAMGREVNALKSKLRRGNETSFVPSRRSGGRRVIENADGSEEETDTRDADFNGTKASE
UniProt P52888, whole entry: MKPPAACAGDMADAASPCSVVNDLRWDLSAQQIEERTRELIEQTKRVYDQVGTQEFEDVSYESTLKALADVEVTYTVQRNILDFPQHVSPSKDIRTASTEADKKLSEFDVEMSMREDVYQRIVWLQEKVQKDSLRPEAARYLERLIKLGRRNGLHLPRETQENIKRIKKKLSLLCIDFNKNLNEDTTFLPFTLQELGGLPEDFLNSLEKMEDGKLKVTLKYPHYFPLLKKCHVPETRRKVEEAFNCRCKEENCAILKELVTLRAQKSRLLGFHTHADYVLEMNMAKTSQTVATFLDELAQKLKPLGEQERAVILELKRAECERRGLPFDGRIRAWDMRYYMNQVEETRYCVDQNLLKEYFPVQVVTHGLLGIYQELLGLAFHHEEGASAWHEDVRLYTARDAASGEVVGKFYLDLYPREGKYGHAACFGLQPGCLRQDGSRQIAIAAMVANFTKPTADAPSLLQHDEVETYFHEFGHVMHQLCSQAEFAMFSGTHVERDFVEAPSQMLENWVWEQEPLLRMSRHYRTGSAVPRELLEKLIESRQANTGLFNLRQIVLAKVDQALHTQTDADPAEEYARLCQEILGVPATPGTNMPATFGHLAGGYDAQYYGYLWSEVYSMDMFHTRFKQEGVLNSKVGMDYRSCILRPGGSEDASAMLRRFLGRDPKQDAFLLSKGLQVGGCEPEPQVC
UniProt Q9H3N1: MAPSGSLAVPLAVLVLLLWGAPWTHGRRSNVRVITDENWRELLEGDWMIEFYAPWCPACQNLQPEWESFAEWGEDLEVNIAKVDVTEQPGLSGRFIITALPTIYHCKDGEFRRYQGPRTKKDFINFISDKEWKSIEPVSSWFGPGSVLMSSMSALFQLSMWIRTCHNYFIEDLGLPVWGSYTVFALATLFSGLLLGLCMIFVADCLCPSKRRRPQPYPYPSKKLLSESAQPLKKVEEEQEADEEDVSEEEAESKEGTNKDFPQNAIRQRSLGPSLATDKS
UniProt Q96T51: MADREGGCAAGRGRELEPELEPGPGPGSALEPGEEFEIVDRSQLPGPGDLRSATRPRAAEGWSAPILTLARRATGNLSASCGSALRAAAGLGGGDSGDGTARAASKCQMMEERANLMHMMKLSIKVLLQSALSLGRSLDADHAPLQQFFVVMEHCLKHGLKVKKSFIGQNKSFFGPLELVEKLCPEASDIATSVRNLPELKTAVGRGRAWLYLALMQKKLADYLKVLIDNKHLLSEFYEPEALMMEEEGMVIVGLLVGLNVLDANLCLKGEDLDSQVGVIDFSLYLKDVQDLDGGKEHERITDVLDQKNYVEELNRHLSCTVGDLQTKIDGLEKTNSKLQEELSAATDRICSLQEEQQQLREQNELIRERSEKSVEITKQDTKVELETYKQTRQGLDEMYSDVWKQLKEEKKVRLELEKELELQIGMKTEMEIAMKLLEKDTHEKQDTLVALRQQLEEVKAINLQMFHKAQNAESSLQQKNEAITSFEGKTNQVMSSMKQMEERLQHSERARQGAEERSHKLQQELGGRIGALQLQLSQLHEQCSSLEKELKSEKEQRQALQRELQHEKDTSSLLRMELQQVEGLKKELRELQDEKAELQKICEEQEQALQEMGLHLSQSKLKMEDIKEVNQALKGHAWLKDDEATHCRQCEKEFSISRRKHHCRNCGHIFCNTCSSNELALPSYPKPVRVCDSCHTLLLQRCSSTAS
UniProt O60678: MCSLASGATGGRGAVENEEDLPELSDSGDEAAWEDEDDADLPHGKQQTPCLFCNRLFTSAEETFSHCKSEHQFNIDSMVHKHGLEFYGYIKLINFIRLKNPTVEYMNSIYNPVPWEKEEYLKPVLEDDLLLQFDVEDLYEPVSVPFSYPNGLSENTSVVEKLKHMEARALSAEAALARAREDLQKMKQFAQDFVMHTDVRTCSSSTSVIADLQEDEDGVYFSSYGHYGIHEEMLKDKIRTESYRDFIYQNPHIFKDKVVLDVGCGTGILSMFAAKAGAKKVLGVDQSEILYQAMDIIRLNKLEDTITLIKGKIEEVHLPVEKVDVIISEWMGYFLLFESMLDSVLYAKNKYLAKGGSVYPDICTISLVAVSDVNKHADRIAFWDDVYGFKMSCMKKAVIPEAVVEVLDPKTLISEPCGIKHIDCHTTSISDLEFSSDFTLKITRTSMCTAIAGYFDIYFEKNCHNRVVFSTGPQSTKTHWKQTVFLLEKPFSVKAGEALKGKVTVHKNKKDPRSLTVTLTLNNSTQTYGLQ
UniProt Q86VP1, whole entry: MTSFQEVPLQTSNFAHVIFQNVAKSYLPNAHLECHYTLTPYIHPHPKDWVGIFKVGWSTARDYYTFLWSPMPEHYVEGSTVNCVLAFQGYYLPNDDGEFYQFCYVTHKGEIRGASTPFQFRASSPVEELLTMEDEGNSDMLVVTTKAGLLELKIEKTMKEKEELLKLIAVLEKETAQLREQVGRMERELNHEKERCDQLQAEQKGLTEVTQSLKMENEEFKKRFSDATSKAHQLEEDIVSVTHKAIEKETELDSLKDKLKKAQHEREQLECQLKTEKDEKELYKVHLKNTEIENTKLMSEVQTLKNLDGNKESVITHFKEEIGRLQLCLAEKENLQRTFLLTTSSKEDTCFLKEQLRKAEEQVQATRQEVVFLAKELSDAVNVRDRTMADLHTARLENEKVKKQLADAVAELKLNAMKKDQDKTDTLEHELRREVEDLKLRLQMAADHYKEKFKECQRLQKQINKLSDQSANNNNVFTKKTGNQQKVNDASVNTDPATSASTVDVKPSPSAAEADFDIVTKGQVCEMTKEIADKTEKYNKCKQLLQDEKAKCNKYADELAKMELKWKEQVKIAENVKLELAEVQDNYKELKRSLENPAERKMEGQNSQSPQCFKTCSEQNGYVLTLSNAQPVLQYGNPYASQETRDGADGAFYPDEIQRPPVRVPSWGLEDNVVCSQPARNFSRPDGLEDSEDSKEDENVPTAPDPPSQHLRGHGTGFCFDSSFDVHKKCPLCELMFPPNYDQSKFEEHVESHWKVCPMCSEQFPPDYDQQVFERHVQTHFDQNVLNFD
UniProt P20338: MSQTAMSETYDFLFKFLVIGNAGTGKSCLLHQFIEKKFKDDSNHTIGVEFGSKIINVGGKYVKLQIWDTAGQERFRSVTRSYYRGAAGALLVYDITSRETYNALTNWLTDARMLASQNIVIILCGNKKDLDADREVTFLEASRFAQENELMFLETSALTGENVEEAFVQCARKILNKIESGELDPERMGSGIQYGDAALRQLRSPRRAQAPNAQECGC

[1] = system: DAOY cell lysate, treatment time: 20 min, 4 °C
[2] = system: intact DAOY cells, treatment time: 90 min, 37 °C

Target | melting temperature shift [1] | melting temperature shift [2]
PYCRL (UniProt Q53H96) | -0.634 °C | 0.532 °C
RELB (UniProt Q01201) | – | 1.28 °C
UniProt Q32P51 | – | -0.205 °C
PCYOX1 (UniProt Q9UHG3) | 1.18 °C | -0.457 °C
SCPEP1 (UniProt Q9HB40) | 0.0633 °C | -1.84 °C
KIN (UniProt O60870) | -0.144 °C | 0.889 °C
ADSSL1 (UniProt Q8N142) | – | 0.14 °C
IREB2 (UniProt P48200) | -0.19 °C | 2.46 °C
PPIF (UniProt P30405) | 0.46 °C | -0.00289 °C
THOC3 (UniProt Q96J01) | -0.0245 °C | 0.481 °C
PPIL1 (UniProt Q9Y3C6) | -0.414 °C | 0.367 °C
UniProt P35749 | – | -2.87 °C
CREBBP (UniProt Q92793) | 3.21 °C | -0.358 °C
THOP1 (UniProt P52888) | -1.37 °C | -0.0154 °C
KIFC1 (UniProt Q9BW19) | -1.4 °C | 0.377 °C
UniProt Q8IVG5 | – | 0.118 °C
UniProt Q8ND83 | – | -1.4 °C
TNPO2 (UniProt O14787) | -0.642 °C | -0.0681 °C
MYO5A (UniProt Q9Y4I1) | -0.0698 °C | -0.44 °C
UniProt Q9Y2H1 | -1.5 °C | 0.31 °C
TMX1 (UniProt Q9H3N1) | 0.921 °C | -1.93 °C

Target | melting temperature shift [1] | melting temperature shift [2]
TGFB1 (UniProt P01137) | 1.17 °C | -1.49 °C
KIAA0930 (UniProt Q6ICG6) | -1.12 °C | –
UniProt Q96RF0 | 0.693 °C | 0.627 °C
SLBP (UniProt Q14493) | 0.0074 °C | –
TBC1D2 (UniProt Q9BYX2) | 0.101 °C | -3.46 °C
RUFY1 (UniProt Q96T51) | -0.272 °C | 0.248 °C
MOSPD1 (UniProt Q9UJG1) | – | 2.04 °C
BRD7 (UniProt Q9NPI1) | 0.0201 °C | -2.55 °C
PPP4R3B (UniProt Q5MIZ7) | -0.615 °C | -0.623 °C
PRMT3 (UniProt O60678) | -0.764 °C | -0.198 °C
BTBD1 (UniProt Q9H0C5) | -0.0429 °C | –
UniProt Q969X1 | – | 6.85 °C
CHD3 (UniProt Q12873) | -0.647 °C | -0.437 °C
POLR2C (UniProt P19387) | 0.0922 °C | 0.00473 °C
INTS7 (UniProt Q9NVH2) | -1.81 °C | -0.156 °C
UniProt P62891 | -1.27 °C | 1.57 °C
UniProt Q16513 | -0.393 °C | 0.0276 °C
UniProt Q9Y6X8 | -0.101 °C | –
TAX1BP1 (UniProt Q86VP1) | -0.77 °C | 0.773 °C
COPG1 (UniProt Q9Y678) | -0.694 °C | 0.0855 °C
RAB4A (UniProt P20338) | -1.29 °C | 1.22 °C

A few values from above.
For melting temperature shift [1], TAX1BP1 (UniProt Q86VP1) shows -0.77 °C
For melting temperature shift [2], TBC1D2 (UniProt Q9BYX2) shows -3.46 °C

Reference: the supplement of paper PMC10060354, “Discovery of a small molecule ligand of FRS2 that inhibits invasion and tumor growth” (Cellular Oncology, 2022)
